Source: publication doi:10.1101/2022.06.15.496232
These are yes or no findings as the source states them, for the method shown. Binding seen in cells or lysates may run through a third protein.

Sequences of proteins named here, by UniProt entry; tags and fusion partners are left off. A change or cut given only in a name is not applied to a line headed by its entry. Residues count along the entry.
UniProt Q6QNK2, whole entry, looked up, stated change not applied: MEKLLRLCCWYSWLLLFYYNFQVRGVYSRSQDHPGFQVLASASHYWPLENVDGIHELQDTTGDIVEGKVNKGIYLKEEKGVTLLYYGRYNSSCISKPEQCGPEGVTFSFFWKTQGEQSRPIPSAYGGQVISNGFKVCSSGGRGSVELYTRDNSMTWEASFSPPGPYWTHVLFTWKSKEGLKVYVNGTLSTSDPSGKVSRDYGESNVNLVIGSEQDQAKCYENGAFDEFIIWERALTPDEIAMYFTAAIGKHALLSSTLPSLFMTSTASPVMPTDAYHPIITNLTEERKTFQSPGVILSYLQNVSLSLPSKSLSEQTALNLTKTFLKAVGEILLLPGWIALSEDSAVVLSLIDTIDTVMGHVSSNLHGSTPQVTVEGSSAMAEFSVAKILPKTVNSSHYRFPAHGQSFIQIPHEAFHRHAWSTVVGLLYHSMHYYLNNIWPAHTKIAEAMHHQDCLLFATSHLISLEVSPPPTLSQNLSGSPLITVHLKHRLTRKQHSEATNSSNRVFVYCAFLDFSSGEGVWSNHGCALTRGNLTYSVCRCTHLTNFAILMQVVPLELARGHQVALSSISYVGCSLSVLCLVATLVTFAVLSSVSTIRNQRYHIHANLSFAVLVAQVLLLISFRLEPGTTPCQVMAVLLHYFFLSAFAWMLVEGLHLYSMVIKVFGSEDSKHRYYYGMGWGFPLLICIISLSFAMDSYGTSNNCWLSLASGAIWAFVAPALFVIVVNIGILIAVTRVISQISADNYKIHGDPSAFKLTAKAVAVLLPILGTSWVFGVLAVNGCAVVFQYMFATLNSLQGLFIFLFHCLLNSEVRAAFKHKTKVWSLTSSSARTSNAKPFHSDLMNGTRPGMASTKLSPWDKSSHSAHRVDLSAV
UniProt Q6UX71, 31-529: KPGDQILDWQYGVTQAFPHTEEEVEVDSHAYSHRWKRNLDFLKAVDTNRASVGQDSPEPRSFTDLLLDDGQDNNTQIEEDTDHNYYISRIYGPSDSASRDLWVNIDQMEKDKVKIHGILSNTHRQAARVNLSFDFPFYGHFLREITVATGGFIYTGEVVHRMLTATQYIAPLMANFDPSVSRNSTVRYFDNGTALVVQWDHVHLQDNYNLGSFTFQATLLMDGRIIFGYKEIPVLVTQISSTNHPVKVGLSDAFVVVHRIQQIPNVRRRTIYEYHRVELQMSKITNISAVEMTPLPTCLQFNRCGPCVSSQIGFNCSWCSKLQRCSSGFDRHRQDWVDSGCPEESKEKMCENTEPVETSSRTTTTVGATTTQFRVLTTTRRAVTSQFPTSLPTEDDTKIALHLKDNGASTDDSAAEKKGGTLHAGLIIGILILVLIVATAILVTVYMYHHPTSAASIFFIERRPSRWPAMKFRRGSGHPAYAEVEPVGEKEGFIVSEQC

Molecular target: TwinStrep-tagged uncleavable GPR133-H543R (in HEK293T cells) (UniProt Q6QNK2)
Test: pull-down

Question: How did the binding turn out when “Myc-tagged PLXDC2 (from UniProt Q6UX71 31-529)” was run?
Answer: no binding
